Library screening results

By UniProt entry, the sequences of proteins in these tests, tags left out.
UniProt E9BF75, entry or part of it: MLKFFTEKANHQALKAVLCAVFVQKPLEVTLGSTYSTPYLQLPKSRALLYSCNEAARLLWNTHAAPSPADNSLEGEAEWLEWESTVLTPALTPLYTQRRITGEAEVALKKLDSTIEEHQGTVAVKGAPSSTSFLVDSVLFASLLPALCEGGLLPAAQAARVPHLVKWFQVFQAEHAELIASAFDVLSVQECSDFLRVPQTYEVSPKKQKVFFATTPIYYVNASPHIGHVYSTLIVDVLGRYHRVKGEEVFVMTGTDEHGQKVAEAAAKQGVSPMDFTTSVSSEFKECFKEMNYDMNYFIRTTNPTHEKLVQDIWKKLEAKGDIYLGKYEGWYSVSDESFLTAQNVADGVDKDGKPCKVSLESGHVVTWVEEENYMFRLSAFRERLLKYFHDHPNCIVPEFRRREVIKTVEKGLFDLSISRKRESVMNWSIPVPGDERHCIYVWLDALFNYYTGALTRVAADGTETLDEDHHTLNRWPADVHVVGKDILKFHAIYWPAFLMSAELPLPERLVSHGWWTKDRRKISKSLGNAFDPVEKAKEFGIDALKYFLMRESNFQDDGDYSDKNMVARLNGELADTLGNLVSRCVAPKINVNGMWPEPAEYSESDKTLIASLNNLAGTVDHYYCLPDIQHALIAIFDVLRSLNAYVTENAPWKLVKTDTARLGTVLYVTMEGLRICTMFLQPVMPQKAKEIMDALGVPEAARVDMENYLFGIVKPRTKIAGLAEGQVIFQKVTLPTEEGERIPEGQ

All values are in %.
How 0% and 100% were set is not recorded. Most values in the screen are low, and negative values occur.
The compounds are a random part of those screened.
A dash means the value is not listed here; it may have been measured.

LdMetRS: 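Primary screen of methionyl-tRNA synthetase; the read-out is not stated. Target: Methionyl-tRNA synthetase (putative), Leishmania donovani (UniProt E9BF75). The test concentration is not given. The values are filed as inhibition. Of about 68,000 compounds tested this way, about 24 (0.035%) reached 50% or more in at least one test.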
Mtb heat-shock: 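Assay on Mycobacterium tuberculosis, filed only as a heat shock assay from Cornell; the read-out is not stated. The concentration is filed as 10 mM, unlikely as a test dose, so the dose is not known. The record gives no direction; compounds that gave an IC50 in retests scored well above the rest, so higher reads as stronger inhibition. Size under these conditions: about 69,000 compounds, about 930 of them at 50% or above in at least one test.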

| compound | LdMetRS | Mtb heat-shock |
|---|---|---|
| `[H][C@]12CNC[C@@]1(C(=O)NCCOCCO)CN(C1CCCC1)C2` | - | -7.774% |
| `O=C(O)C(F)(F)F.O=C(O)C(F)(F)F.[H][C@@]12CN(Cc3nccs3)C[C@@]1([H])N(Cc1ccncc1)C(=O)CO2` | - | -20.96% |
| `O=C(C1CC1)N1Cc2[nH]nc(COCc3cccnc3)c2C1.O=C(O)C(F)(F)F.O=C(O)C(F)(F)F` | - | -2.886% |
| `Cl.Cl.[H][C@@]12CCNCC1OCCN2Cc1ccccc1` (stereo partly shown) | - | -19.61% |
| `O=C(O)C(F)(F)F.[H][C@@]12CCCO[C@]1([H])[C@@H](OCC(C)C)CN2S(=O)(=O)c1cn(C)cn1` | - | 0.5542% |
| `CC(C)NC(=O)[C@@H]1C[C@H]2NCC[C@H]2O1` | 8.269% | - |
| `CC1CN(CC(=O)Nc2ccncc2)CCN1Cc1nccn1C` (stereo not shown) | 19.37% | -36.7% |
| `OC(CN(Cc1ccccc1)Cc1ccncc1)c1cccs1` (stereo not shown) | 10.04% | -1.892% |
| `CNc1nc(C2CCCCN2C(=O)C(C)(C)OC)nc2c1CN(C)CC2` (stereo not shown) | 10.12% | -16.88% |
| `CC(=O)Nc1cc(Br)cnc1OCC(F)(F)F` | 9.669% | -18.97% |
| `O=C(CCNc1ncccn1)NCc1ccc(Br)s1` | 6.983% | -0.8913% |
| `COc1ccc(OCCN(C)C(=O)c2ccc(OC)cc2O)cc1` | 16.56% | -6.966% |
| `O=C(O)C(F)(F)F.[H][C@@]12CCN(S(C)(=O)=O)[C@@]1([H])CCN2Cc1cc(C)c(C)o1` | - | -17.14% |
| `CCc1nnc(CS(=O)(=O)c2ccc(C)c(C)c2)n1C` | 0.542% | -25.02% |
| `O=C(C[C@@H]1COC[C@H]2CN(Cc3ccc(F)cc3)C[C@@H]12)N1CCOCC1` | -12.03% | - |
| `[H][C@@]12CCCO[C@]1([H])[C@H](NS(C)(=O)=O)CN2C(=O)c1cnccn1` | - | -11.82% |
| `O=C(O)c1cc(S(=O)(=O)Nc2ccc(F)cc2Cl)cc2c1OCCO2` | 9.456% | -21.3% |
| `CN(C)C(=O)C1(c2cnccn2)CCCN1C(=O)Cc1ccsc1` (stereo not shown) | 12.11% | 6.505% |
| `O[C@@H]1C[C@H]2CN(Cc3ccccc3Cl)[C@H](Cc3ccccc3)CN2C1` | 9.748% | - |
| `CCNC(=O)c1ccc(NC2CCOC3(CCCCC3)C2)nn1` (stereo not shown) | 1.397% | -29.89% |
| `Cc1noc(CNC(=O)N2CCN(c3nc(C)c(C)s3)CC2)n1` | 18.26% | -6.014% |
| `Cc1cc(CN2CCC(CNS(=O)(=O)c3ccccc3F)CC2)c(C)o1` | 9.353% | -14.77% |
| `Cc1nnc(CN(C)CC2(O)CCCN(CCC3CCCCC3)C2=O)o1` (stereo not shown) | 11.14% | -12.01% |
| `CC(C)CNC(=O)c1ccc(NC(=O)NC2CC2)cc1Cl` | 6.593% | -15.23% |
| `[H][C@]12CN(Cc3cccc(OC(F)(F)F)c3)CCN1C(=O)N(C)C2` | - | -44.79% |
| `Cn1ccnc1CN(Cc1cccnc1)CC1CCCO1` (stereo not shown) | 4.438% | -26.08% |
| `Cc1ncc(CC(=O)N2CCC(N3C[C@@H](C)O[C@@H](C)C3)CC2)c(=O)[nH]1` | 4.8% | -1.763% |
| `Cc1ncsc1CCN(C)C(=O)CN1CCOc2ccccc2C1` | 9.487% | 4.355% |
| `CCn1c(C)cc(C(=O)N2C[C@@H](C(=O)O)[C@H](c3ccccc3)C2)c1C` | 21.88% | -0.2138% |
| `CC(=O)N(C)CC(=O)Nc1ccc(C)cc1OCc1ccccc1` | 13.04% | 24.52% |
| `OCCN1CCN(CC(O)c2ccc(C(F)(F)F)cc2)CC1` (stereo not shown) | 3.881% | 1.422% |
| `O=C(Nc1ccc(-c2ccco2)cc1)C1CCCN(Cc2ccon2)C1` (stereo not shown) | 16.94% | 16.07% |
| `CCc1cnc(N2CCN(CC(=O)Nc3c(C)n[nH]c3C)CC2)s1` | 15.33% | 10.69% |
| `O[C@@]1(CNCCCNc2cccnc2)CCCN2CCCC[C@@H]21` | 6.03% | - |
| `O=C(NCc1cccnc1)N1CCc2ncnc(C3CC3)c2CC1` | 12.33% | - |
| `CC(C)Cc1ncc2c(n1)CN(c1nc3ccccc3cc1CO)C2` | 2.538% | 14.3% |
| `CCNC(=O)CCN1CCC(c2cc(N3CCOCC3)nc(C)n2)CC1` | 13.33% | 4.394% |
| `O=C(NCCc1ccccn1)c1n[nH]c2c1CCC2` | 9.115% | 3.643% |
| `Cc1c(C(=O)N(C)CC(F)(F)F)nnn1-c1ccccc1Cl` | 19.55% | 1.246% |
| `CNC(=O)CN1CCOCC2(CCCN(Cc3ccc(F)cc3)C2)C1` (stereo not shown) | 4.808% | - |
| `Cc1cnc(N2CC[C@@H]3O[C@@H](COCc4ccccn4)CC[C@@H]32)nc1` | 14.84% | - |
| `CCOCC1CN(CCOc2ccc(Cl)cc2)Cc2c1cnn2C.O=C(O)C(F)(F)F.O=C(O)C(F)(F)F` (stereo not shown) | - | -7.584% |
| `CC1c2ncc(CN3CCN(C)CC3)n2CCN1Cc1ccccn1` (stereo not shown) | 15.74% | - |
| `Cc1cnn(CC(=O)NC2CCCc3cc(OC(F)F)ccc32)c1` (stereo not shown) | 11.59% | 11.8% |
| `CCC1CN(C(=O)COc2ccc(C(=O)NC3CC3)cc2)CCO1` (stereo not shown) | 9.42% | 25.49% |
| `O=C1Nc2ccccc2C12CCN(c1nccs1)CC2` | 22.41% | - |
| `O=S(=O)(c1cccs1)N1CCCCC1c1ccn[nH]1` (stereo not shown) | 5.882% | -10.66% |
| `CC(=O)CN1CC2(CCNCC2)COc2ccccc2S1(=O)=O.O=C(O)C(F)(F)F` | - | -27.15% |
| `O=C(NCCc1ccccn1)NC1CCN(c2ncccn2)CC1` | 12.5% | -9.117% |
| `CN(CC1Cc2ccccc2CN1C)c1nc(N)nc2c1CCNCC2` (stereo not shown) | 12.04% | -20.94% |
| `CN(C)CCNC(=O)c1cc(-c2cnc(N3CCOCC3)nc2)cn1C.O=C(O)C(F)(F)F` | - | 6.994% |
| `CN(C)CCNC(=O)c1ccc(S(=O)(=O)N[C@@H]2CCNC2)cc1` | 12.1% | -23.6% |
| `O=c1ncn(-c2ccccc2F)c2ncccc12` | 12.63% | 21.17% |
| `Cc1c(C(=O)N2C[C@@H](CN(C)CCO)[C@@H](CO)C2)sc2ccccc12` | 3.125% | -10.85% |
| `O=C(CCCc1ccccc1)N1CCCC(n2cncn2)C1` (stereo not shown) | 21.67% | -2.186% |
| `CSc1ccc(OCCN2CCC(n3cncn3)CC2)cc1` | 13.4% | -36.56% |
| `CCCC1CCCN(Cc2csc(-c3ncccn3)n2)CC1` (stereo not shown) | 20.63% | 31.96% |
| `O=C(NCC1CC1)C1CCC2(CCN(C(=O)c3ccccn3)CC2)O1.O=C(O)C(F)(F)F` (stereo not shown) | - | -26.76% |
| `CCn1c(CNC(=O)Nc2nc(C)c(C)o2)nc2ccccc21` | 5.645% | 40.39% |
| `Cn1nc(Cn2cccn2)c2c1CN(C1CCOCC1)C2` | 8.759% | - |
| `O=C(O)C(F)(F)F.[H][C@@]12CCN(c3ncccn3)C[C@]1([H])[C@H](C(=O)N(C)C)CCO2` | - | -12.06% |
| `CN(C)c1ccc(C(=O)Nc2cn[nH]c2)cc1` | 18.03% | -9.541% |
| `CCc1cc(NCCc2cnccn2)n2nc(C)c(C)c2n1` | 6.266% | 78.14% |
| `NC(=O)CC1CCN(S(=O)(=O)N2CCCC2c2ccco2)CC1` (stereo not shown) | 1.796% | 0.1236% |
| `Cc1ccc(C)c(CN2C[C@H]3CC[C@@H]2CN(C(=O)c2cccnc2)C3)c1` | 2.676% | - |
| `Cc1nc(CN2C(=O)COC3(CCN(Cc4nccs4)CC3)C2C)cs1.O=C(O)C(F)(F)F` (stereo not shown) | - | -23.96% |
| `CSCC[C@@H](CO)n1ccnc1-c1ccc(C)o1` | 18.56% | 17.32% |
| `[H][C@]12CC[C@]([H])(CN(C(=O)c3ccc(C(C)=O)s3)C1)N(Cc1ccccc1)C2` | - | 26.32% |
| `[H][C@@]12COC[C@]1(COCc1cccnc1)CN(C(=O)c1ccc(C)nc1)C2` | - | 3.251% |
| `Cc1ccc(OCCC(=O)NC2CCc3nc(C)cn3C2)cc1` (stereo not shown) | 23.24% | -6.234% |
| `CNc1ncccc1CN1CCCCC1c1cc(C)n2ccnc2n1` (stereo not shown) | 5.882% | -13.96% |

The last 4 entries again:

compound	LdMetRS	Mtb heat-shock
[H][C@]12CC[C@]([H])(CN(C(=O)c3ccc(C(C)=O)s3)C1)N(Cc1ccccc1)C2	-	26.32%
[H][C@@]12COC[C@]1(COCc1cccnc1)CN(C(=O)c1ccc(C)nc1)C2	-	3.251%
Cc1ccc(OCCC(=O)NC2CCc3nc(C)cn3C2)cc1 (stereo not shown)	23.24%	-6.234%
CNc1ncccc1CN1CCCCC1c1cc(C)n2ccnc2n1 (stereo not shown)	5.882%	-13.96%

The values are deposited in ChEMBL (CHEMBL3988442, “University of Dundee, Small-Polar-MMV Screening Library” (2021)).